The target in assay [1] is Mouse STYXL1 in pGBKT7 (yeast two-hybrid bait) (mouse). The assay is described as follows: two-hybrid; STYXL1 in pGBKT7 as bait, CCT1-CCT8 in pGADT7 as prey; yeast AH109, 30 °C 2-3 days, SD-Leu-Trp-His plates.
Assay [2] has as its target N-terminal region of STYXL1 (N, 1-167 aa) (mouse). The assay is described as follows: co-IP; co-transfected HEK293T cells, 48 h; IP lysis buffer; anti-DYKDDDDK resin at 4 °C overnight; washed with 20 mM Tris pH 7.4, 150 mM NaCl, 0.5% Triton X-100, 1 mM EDTA; immunoblot.

These are yes or no findings as the source states them, for the method shown. Binding can be weak; no strength is given. For some assays here: Binding seen in cells or lysates may run through a third protein.

B1: Mouse CCT7 in pGADT7 (yeast two-hybrid prey) (protein, UniProt P80313 1-544)
chain: MMPTPVILLKEGTDSSQGIPQLVSNISACQVIAEAVRTTLGPRGMDKLIVDGRGKATISNDGATILKLLDVVHPAAKTLVDIAKSQDAEVGDGTTSVTLLAAEFLKQVKPYVEEGLHPQIIIRAFRTATQLAVNKIKEIAVTVKKQDKVEQRKMLEKCAMTALSSKLISQQKVFFAKMVVDAVMMLDELLQLKMIGIKKVQGGALEESQLVAGVAFKKTFSYAGFEMQPKKYKNPKIALLNVELELKAEKDNAEIRVHTVEDYQAIVDAEWNILYDKLEKIHQSGAKVILSKLPIGDVATQYFADRDMFCAGRVPEEDLKRTMMACGGSIQTSVNALVPDVLGHCQVFEETQIGGERYNFFTGCPKAKTCTIILRGGAEQFMEETERSLHDAIMIVRRAIKNDSVVAGGGAIEMELSKYLRDYSRTIPGKQQLLIGAYAKALEIIPRQLCDNAGFDATNILNKLRARHAQGGMWYGVDINNENIADNFQAFVWEPAMVRINALTAASEAACLIVSVDETIKNPRSTVDPPAPSAGRGRGQARFH
On to B1, for which the binding result in assay [1] is on record as “binds”.

B2: CCT7 (co-IP construct) (protein, UniProt P80313 1-544)
chain: B1 chain
As to B2, the binding entry in assay [2] is recorded as “binds”.

Source of the values: paper PMC10761714.
